Values of other authors as cited in article PMC10878854, “Identification, structural characterization, and molecular dynamic simulation of ACE inhibitory peptides in whey hydrolysates from Chinese Rushan cheese by-product” (Food Chemistry: X, 2024).
Converted amounts (≈) assume the structure as drawn. The match of structure and compound is tentative.

Protein sequences, listed by entry. Tags and fused reporters are not part of them. Residues count along the entry.
UniProt P12822, 34-1310 limits assumed: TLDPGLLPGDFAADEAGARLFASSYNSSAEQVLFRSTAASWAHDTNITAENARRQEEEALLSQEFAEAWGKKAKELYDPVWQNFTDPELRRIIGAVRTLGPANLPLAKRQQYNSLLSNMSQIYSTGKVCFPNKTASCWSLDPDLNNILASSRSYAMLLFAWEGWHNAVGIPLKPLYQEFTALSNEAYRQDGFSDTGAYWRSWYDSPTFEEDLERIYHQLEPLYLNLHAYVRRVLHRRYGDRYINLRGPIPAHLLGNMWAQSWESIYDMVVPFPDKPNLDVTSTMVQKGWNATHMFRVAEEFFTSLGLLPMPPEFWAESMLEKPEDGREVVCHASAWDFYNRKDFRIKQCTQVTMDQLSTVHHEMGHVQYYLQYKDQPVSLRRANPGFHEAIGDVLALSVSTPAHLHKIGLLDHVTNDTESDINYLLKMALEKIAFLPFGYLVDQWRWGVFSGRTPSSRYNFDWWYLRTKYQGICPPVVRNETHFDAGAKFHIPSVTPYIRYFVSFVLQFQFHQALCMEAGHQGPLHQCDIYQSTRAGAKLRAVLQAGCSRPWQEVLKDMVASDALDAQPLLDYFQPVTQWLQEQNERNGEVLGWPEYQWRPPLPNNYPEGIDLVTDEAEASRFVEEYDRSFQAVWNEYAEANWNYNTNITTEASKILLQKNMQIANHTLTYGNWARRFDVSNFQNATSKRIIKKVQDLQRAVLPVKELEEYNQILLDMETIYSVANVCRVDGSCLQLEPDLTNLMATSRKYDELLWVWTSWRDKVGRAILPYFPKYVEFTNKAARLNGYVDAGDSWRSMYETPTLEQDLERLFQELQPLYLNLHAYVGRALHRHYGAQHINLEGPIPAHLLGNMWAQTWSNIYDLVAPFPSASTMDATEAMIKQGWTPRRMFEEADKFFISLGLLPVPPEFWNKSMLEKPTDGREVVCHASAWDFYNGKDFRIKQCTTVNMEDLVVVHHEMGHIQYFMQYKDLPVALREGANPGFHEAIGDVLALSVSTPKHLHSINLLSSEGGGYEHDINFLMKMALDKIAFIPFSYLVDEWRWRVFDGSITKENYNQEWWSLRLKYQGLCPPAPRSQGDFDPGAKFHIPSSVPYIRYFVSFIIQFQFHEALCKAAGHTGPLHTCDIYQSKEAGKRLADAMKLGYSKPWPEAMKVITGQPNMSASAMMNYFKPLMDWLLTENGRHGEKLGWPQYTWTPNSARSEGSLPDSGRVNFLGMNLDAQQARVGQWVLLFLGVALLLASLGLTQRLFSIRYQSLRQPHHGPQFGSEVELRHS

Target: ACE (Oryctolagus cuniculus, UniProt P12822)
Conditions: cited from earlier work

SMILES | IC50 (ACE inhibitory activity) (dipeptide from whey proteins fermented with Lactobacillus plantarum QS670, ref Xia et al., 2020) | IC50 (read-out: IC50 (ACE inhibitory activity), α-lactalbumin derived peptide, ref Hou et al., 2021)
C[C@H](NC(=O)CN)C(=O)O | 1220 µg/mL (≈ 8.35 mM) | 
O=C(O)CC[C@H](NC(=O)[C@@H]1CCCN1)C(=O)N[C@@H](Cc1c[nH]c2ccccc12)C(=O)O |  | 3.13 mM
